Library screen at single concentrations

The chains behind the UniProt entries cited, without tags or fusion partners. Residues count along the entry.
UniProt Q8IDJ8, 1-583: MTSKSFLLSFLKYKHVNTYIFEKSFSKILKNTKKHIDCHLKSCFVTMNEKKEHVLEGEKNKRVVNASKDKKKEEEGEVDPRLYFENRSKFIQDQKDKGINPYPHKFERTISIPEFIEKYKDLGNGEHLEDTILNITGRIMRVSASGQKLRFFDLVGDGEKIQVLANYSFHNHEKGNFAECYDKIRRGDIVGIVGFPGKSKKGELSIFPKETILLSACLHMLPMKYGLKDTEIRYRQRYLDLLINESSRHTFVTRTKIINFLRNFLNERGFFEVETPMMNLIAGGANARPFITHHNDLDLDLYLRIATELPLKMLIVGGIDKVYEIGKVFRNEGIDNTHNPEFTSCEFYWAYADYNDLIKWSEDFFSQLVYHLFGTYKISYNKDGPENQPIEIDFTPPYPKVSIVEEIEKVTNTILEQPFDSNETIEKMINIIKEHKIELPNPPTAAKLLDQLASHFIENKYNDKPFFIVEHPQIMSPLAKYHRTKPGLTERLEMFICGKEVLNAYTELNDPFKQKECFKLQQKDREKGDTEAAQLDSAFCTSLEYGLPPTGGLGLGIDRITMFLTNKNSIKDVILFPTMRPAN
UniProt Q4DA54, 1-478: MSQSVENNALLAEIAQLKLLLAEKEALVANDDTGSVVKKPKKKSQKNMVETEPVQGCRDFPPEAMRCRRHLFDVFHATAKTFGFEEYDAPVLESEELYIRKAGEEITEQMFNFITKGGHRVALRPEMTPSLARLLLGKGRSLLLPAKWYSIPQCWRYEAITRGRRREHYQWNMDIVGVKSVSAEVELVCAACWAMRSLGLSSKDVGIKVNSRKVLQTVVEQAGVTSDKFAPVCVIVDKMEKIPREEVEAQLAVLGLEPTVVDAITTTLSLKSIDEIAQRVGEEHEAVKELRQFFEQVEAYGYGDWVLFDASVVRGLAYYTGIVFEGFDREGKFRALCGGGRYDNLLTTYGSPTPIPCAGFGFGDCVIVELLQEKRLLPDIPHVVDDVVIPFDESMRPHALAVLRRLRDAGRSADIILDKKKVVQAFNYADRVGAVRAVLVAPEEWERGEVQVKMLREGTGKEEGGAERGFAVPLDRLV
UniProt I6X8D2, whole entry: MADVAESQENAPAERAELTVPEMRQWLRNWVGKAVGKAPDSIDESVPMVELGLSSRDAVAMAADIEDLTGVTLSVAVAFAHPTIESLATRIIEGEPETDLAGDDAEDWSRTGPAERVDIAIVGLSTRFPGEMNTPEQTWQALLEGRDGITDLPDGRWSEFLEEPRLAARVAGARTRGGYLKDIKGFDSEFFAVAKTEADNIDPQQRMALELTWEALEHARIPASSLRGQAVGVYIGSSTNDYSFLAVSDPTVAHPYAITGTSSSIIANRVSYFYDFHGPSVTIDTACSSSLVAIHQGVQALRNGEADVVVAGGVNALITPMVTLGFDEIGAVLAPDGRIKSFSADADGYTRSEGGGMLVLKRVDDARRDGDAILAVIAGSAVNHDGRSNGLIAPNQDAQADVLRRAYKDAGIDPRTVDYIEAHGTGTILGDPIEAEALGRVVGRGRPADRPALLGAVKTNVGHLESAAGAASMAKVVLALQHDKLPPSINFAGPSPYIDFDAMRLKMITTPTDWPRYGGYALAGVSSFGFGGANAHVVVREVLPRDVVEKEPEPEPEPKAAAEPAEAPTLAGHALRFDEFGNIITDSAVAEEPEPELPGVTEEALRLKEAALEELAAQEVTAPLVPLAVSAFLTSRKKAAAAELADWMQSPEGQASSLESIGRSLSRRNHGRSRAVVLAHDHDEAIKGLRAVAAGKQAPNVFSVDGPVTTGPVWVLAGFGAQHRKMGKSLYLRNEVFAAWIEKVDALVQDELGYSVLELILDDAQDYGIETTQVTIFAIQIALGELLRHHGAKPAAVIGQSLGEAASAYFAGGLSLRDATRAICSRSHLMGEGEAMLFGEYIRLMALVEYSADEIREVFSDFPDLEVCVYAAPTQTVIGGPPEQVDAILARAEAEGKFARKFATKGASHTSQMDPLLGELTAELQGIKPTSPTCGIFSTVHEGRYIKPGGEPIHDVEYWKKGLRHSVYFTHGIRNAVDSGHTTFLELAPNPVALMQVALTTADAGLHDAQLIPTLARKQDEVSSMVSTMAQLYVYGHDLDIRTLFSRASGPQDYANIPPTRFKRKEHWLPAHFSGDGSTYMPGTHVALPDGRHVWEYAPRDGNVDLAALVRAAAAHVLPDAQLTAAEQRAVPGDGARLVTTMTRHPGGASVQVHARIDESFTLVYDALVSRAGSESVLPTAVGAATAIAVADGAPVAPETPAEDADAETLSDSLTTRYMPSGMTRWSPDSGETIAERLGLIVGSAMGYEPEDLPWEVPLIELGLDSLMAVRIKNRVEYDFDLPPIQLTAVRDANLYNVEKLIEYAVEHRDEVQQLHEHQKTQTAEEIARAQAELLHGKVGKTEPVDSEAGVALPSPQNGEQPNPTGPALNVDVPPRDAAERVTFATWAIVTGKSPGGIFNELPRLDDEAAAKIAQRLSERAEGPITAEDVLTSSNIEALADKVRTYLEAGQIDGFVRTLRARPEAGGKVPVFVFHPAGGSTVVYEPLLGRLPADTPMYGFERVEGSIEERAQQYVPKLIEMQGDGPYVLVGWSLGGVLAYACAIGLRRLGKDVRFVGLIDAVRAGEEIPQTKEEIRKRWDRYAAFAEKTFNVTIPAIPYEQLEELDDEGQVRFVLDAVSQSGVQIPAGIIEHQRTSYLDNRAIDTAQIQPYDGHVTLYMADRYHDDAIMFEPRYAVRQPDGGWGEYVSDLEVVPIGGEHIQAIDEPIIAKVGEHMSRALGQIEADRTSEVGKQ

PfKRS1: 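Lysine-tRNA ligase, Plasmodium falciparum 3D7 (UniProt Q8IDJ8). Enzyme assay of the cytosolic lysyl-tRNA synthetase in 384-well plates, read by luminescence. Concentration: 30 µM. Direction is inferred from only a few compounds that gave an IC50; most scored high, so higher reads as stronger inhibition. Size under these conditions: about 69,000 compounds, about 49 of them at 50% or above in at least one test.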
TcHisRS: 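Histidine-tRNA ligase, Trypanosoma cruzi CL Brener (UniProt Q4DA54). Enzyme assay of histidyl-tRNA synthetase; the read-out is not stated. Tested at 30 µM. Direction is inferred from retests: higher values go with stronger inhibition. Size under these conditions: about 69,000 compounds, about 31 of them at 50% or above in at least one test.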
Pks13 thioesterase: 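Polyketide synthase Pks13, Mycobacterium tuberculosis (UniProt I6X8D2). Enzyme assay of the thioesterase domain of polyketide synthase 13; the read-out is not stated. Tested at 30 µM. The record gives no direction; the compounds picked for IC50 retests had high values, so higher reads as stronger inhibition. Of about 67,000 compounds tested this way, about 300 (0.46%) reached 50% or more in at least one test.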

Results are given as percent effect.
The controls that fix the scale are not given in the record; negative values are as filed.
This is an unselected part of the compounds tested.
A dash means the value is not listed here; it may have been measured.

Compound	PfKRS1	TcHisRS	Pks13 thioesterase
C[C@@H]1CN(Cc2cc(C(F)(F)F)ccc2F)CC[C@@]1(O)C1CC1	5.866%	10.84%	7.436%
NCCc1n[nH]c(=O)n1-c1cccc2ccccc12	1.311%	7.2%	1.123%
CCC(CO)N(C/C(C)=C/c1ccco1)Cc1ccccn1 (centres unmarked)	8.469%	5.579%	-3.948%
CN(Cc1cc2cc(F)ccc2[nH]1)C(=O)C1CC(=O)N(C2CCCC2)C1 (centres unmarked)	4.241%	3.004%	-24.12%
Cc1cccc(CN2CCN(C(=O)c3cc(Cl)c[nH]c3=O)CC2)c1	1.141%	6.806%	-30.84%
Cc1cccc(C(=O)Nc2c(C(=O)N(C)C)nn(C)c2C)c1	3.233%	5.217%	-7.61%
COc1cc(Cl)ccc1C(=O)N1CCCC(n2nc(C)nc2C)C1 (centres unmarked)	-2.276%	0.5714%	-10.07%
COCCCN(C)c1ncccc1I	-0.71%	-1.111%	14.37%
CC(C)c1nc(CC(=O)N2CCN(C)CC2c2ccccc2)cs1 (centres unmarked)	5.128%	5.419%	32.51%
O=C(COCc1ccccc1)NCc1ccc(O)c(F)c1	-2.46%	9.392%	-42.53%
CC(Cc1cnccn1)NC(=O)c1cccc(CC2CCNCC2)c1 (centres unmarked)	2.75%	-0.578%	6.979%
CSCCC(Nc1nc(C)cc(C)n1)C(=O)NC1CCCC1 (centres unmarked)	4.868%	8.911%	-6.734%
CCN1CCCN(S(=O)(=O)c2cc3ccccc3o2)CC1	2.48%	8.374%	-6.511%
Cc1cccc(OCC2CCCN(C(=O)CN(C)C3CCNCC3)C2)c1 (centres unmarked)	6.919%	9.36%	-13.01%
CN1C[C@@H](NC(=O)c2cc(F)cc(F)c2)C[C@H]1C(=O)NCc1ncc[nH]1	6.574%	-3.784%	-10.83%
Cc1oc(NC(=O)C(C)N2CCN(C(C)(C)CO)CC2)c(C#N)c1C (centres unmarked)	3.779%	5.556%	-14.77%
CC1(C)CN=C(N2CCN(CC3CCCO3)CC2)S1 (centres unmarked)	3.285%	4%	-11.54%
Cn1ccnc1CN1CCN(CC(O)c2ccccc2)CC1 (centres unmarked)	0.7738%	6.471%	-5.829%
c1ccc(OCc2nc(CNCCn3cccn3)cs2)cc1	-4.346%	1.554%	-17.4%
Cc1noc(C2CCN(C(=O)CCNS(C)(=O)=O)CC2)n1	1.946%	3.053%	-12.08%
Cc1ccc(N2CC[C@H](OCC3CC3)[C@@H]2Cc2cnn(C)c2)nn1	15.33%	9.091%	6.446%
NC(=O)C1CCN(C(=O)NCc2cccnc2OC2CCCC2)C1 (centres unmarked)	1.832%	7.018%	5.463%
O=c1ccc(-c2cccs2)nn1CN1CCOCC1	1.333%	1.754%	-33.99%
CCCS(=O)(=O)N1CCN(c2cc(-n3cnc(C)c3C)ncn2)CC1	1.233%	5.102%	-11.19%
COc1ccc(Cc2ncc3c(n2)CN(C(=O)C(C)(C)OC)C3)cc1	4.944%	1.571%	-12.76%
O=C(c1ccncn1)N1CCC[C@]2(C[C@@H](OCc3ccccn3)CO2)C1	-2.038%	4.902%	-41.31%
Cc1ccc(Cl)c(CN2CCC(c3nccn3C(C)C)CC2)c1F	1.149%	3.139%	-4.616%
Cn1cc(CCCNC(=O)NCC(O)c2ccsc2)cn1 (centres unmarked)	2.935%	4.124%	-30.94%
COc1ccc(CN2CCCCCC2c2cccs2)c(O)c1 (centres unmarked)	5.315%	12.56%	0.2536%
CC(C)(C)NC(=O)NC(=O)CN1C=Nc2ccccc2S1(=O)=O	0.4763%	4.046%	-1.933%
NC(=O)NCCC(=O)NCc1cccnc1N1CCc2ccccc2C1	4.413%	1.695%	-12.47%
COc1cc(C)c(S(=O)(=O)CC(=O)N(C)C2CC2)cc1OC	8.987%	-1.739%	10.31%
O=C(NCC(F)(F)F)C1CCCN(Cc2ccno2)C1 (centres unmarked)	7.178%	12.99%	-26.1%
CC1CN(CC(=O)NCc2cccs2)CCN1c1nccs1 (centres unmarked)	1.641%	2.326%	-4.155%
Cc1nc(C2CCN(Cc3ncc[nH]3)CC2)no1	-0.0384%	0%	-26.25%
CC(C)(C)c1nc(CN2CCC(c3ccnn3CCO)CC2)no1	1.265%	-0.5764%	-
COc1ccccc1OCCN1CCC(N2CCNC2=O)CC1	-2.541%	-1.916%	-20.81%
CCOc1ccc(NC(=O)NCC(C)(O)c2cccs2)cc1 (centres unmarked)	-0.9228%	10%	-6.448%
CCN(Cc1ccoc1)C(=O)NC1CCN(C(=O)OC(C)(C)C)C1 (centres unmarked)	-1.694%	0%	-9.386%
COc1ccc(C(C(=O)O)N2CCC(Cn3cccn3)CC2)c(OC)n1 (centres unmarked)	3.816%	0.431%	-21.26%
Cc1cccc(CN2CCc3onc(CO)c3C2)n1	6.205%	6.667%	-2.624%
c1cnc(N2CC3(CCN(Cc4ccncc4)C3)C2)nc1	4.187%	12.61%	-6.052%
CCCc1cc(=O)[nH]c2nnc(SCC(=O)NCCc3ccccc3)n12	4.814%	5.102%	-5.198%
O=S(=O)(Cc1cccc(F)c1)Nc1cc(Cl)ccn1	10.33%	10.88%	-9.147%
CCc1ccc(CNC(=O)c2ccc(N3CCOC3=O)cc2)s1	3.959%	-5.882%	-34.93%
COc1ccc(CNC(=O)Nc2ccc(=O)n(C)c2)cc1	77.6%	76.62%	-38.92%
O=C(N1CCCC1)N1CCN(CC2CC2)c2ncccc2C1	-1.585%	4.918%	-22.09%
CN(C)CCNC(=O)c1cc(-c2cnc(N3CCOCC3)nc2)cn1C	-0.6941%	10.78%	0.2748%
COc1ccc(CN2CCO[C@H]3[C@H](OCCN4CCCC4)CC[C@@H]32)cc1	-4.529%	-6.667%	-9.614%
CNC(=O)CCNC(=O)c1ccccc1N1CCOCC1	4.155%	1.02%	-1.633%
CCn1ccnc1CN1C[C@@H](CN2CCCC2)[C@@H](CO)C1	-3.816%	5%	-17.42%
Cc1nc(C)n(C2CCCN(C(=O)Cc3cccnc3)C2)n1 (centres unmarked)	7.526%	3.743%	-6.539%
Cc1cnn(CC2CN(Cc3nnc(-c4ccccc4)o3)CCO2)c1 (centres unmarked)	-0.3039%	4.624%	-11.9%

5 of the entries, repeated:

Result for CCCS(=O)(=O)N1CCN(c2cc(-n3cnc(C)c3C)ncn2)CC1 was PfKRS1: 1.233%; TcHisRS: 5.102%; Pks13 thioesterase: -11.19%.
Result for O=C(N1CCCC1)N1CCN(CC2CC2)c2ncccc2C1 was PfKRS1: -1.585%; TcHisRS: 4.918%; Pks13 thioesterase: -22.09%.
Result for COc1ccc(CNC(=O)Nc2ccc(=O)n(C)c2)cc1 was PfKRS1: 77.6%; TcHisRS: 76.62%; Pks13 thioesterase: -38.92%.
Result for C[C@@H]1CN(Cc2cc(C(F)(F)F)ccc2F)CC[C@@]1(O)C1CC1 was PfKRS1: 5.866%; TcHisRS: 10.84%; Pks13 thioesterase: 7.436%.
Result for Cc1cnn(CC2CN(Cc3nnc(-c4ccccc4)o3)CCO2)c1 (centres unmarked) was PfKRS1: -0.3039%; TcHisRS: 4.624%; Pks13 thioesterase: -11.9%.

Measurements from “University of Dundee, Small-Polar-MMV Screening Library” (2021), ChEMBL document CHEMBL3988442.